In the supplement of paper PMC11659162:
“And” between values parts separate entries of the source, which are not always exact repeats. Equal values may be shown once. Some of the results follow. This is a noisy data set.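 The cells are a human neuroglioma line carrying a green fluorescent autophagy reporter.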

These compounds were tested on H4 GFP-LC3 (assay: ACBP immunofluorescence intensity (scaled to control) (AU (scaled)); higher = more intracellular ACBP/DBI). Settings: 5 µM; 6 h.

Q: With `C=CCN1C[C@H](C)N([C@H](c2ccc(C(=O)N(CC)CC)cc2)c2cccc(OC)c2)C[C@H]1C` as the compound, how does the ACBP immunofluorescence intensity read?
A: 0.735

Q: `Fc1ccc(C(OCCN2CCN(C/C=C/c3ccccc3)CC2)c2ccc(F)cc2)cc1` was tested. Which ACBP immunofluorescence intensity did it give?
A: 0.886

Q: `Oc1ccc2c3c1O[C@H]1[C@@H](O)CC[C@@]4(O)[C@@H](C2)N(CC2CCC2)CC[C@]314` was tested. Which ACBP immunofluorescence intensity did it give?
A: 0.599

Q: With `NC(=O)[C@@H]1CCCN1C(=O)[C@H](Cc1ccccc1)NC(=O)[C@@H]1CCCN1C(=O)[C@@H](N)Cc1ccc(O)cc1` as the compound, how does the ACBP immunofluorescence intensity read?
A: 0.842

Q: With `CC[C@@H](CO)NC(=O)[C@@H]1C=C2c3cccc4c3c(cn4C)C[C@H]2N(C)C1` as the compound, how does the ACBP immunofluorescence intensity read?
A: 1

Q: For `O=c1[nH]c2ccccc2n1CCCN1CCC(n2c(=O)[nH]c3cc(Cl)ccc32)CC1`, which ACBP immunofluorescence intensity is on record?
A: 0.862

Q: For `NCCc1c[nH]c2ccc(O)cc12`, which ACBP immunofluorescence intensity is on record?
A: 0.443 and 0.993

Q: For `O=C(CCCN1CCC2(CC1)C(=O)N(Cc1cccc(F)c1)CN2c1ccccc1)c1ccc(F)cc1`, which ACBP immunofluorescence intensity is on record?
A: 0.943

Q: With `O=C(O)Cc1cccnc1C(=O)O` as the compound, how does the ACBP immunofluorescence intensity read?
A: 0.88

Q: With `S=C(NC1CCCCC1)N1CCC(c2cnc[nH]2)CC1` as the compound, how does the ACBP immunofluorescence intensity read?
A: 0.977

Q: How did the ACBP immunofluorescence intensity turn out when `C=CC[N+]1(C)CC[C@]23c4c5ccc(O)c4O[C@H]2C(=O)CC[C@@]3(O)[C@H]1C5` (stereo not given in full) was run?
A: 0.877

Q: Which ACBP immunofluorescence intensity does the source give for `c1ccc(CCCCN2CCC(c3ccccc3)CC2)cc1` here?
A: 0.897

Q: How did the ACBP immunofluorescence intensity turn out when `NCCCC[C@H](NC(=O)[C@H](Cc1ccccc1)NC(=O)[C@@H](CCCN=C(N)N)NC(=O)[C@@H](N)Cc1ccc(O)cc1)C(N)=O` was run?
A: 0.83

Q: `Clc1ccc(C2CC3CCC2N3)cn1` (racemic) was tested. Which ACBP immunofluorescence intensity did it give?
A: 0.97

Q: `C[N+](C)(C)CCCCCCCCCC[N+](C)(C)C` was tested. Which ACBP immunofluorescence intensity did it give?
A: 0.958

Q: For `CC(NC(=O)C(N)Cc1ccc(O)cc1)C(=O)NC(Cc1ccccc1)C(=O)NC(Cc1ccccc1)C(N)=O` (stereo not given), which ACBP immunofluorescence intensity is on record?
A: 0.925

Q: For `C[C@H](Cc1ccc(OCC(=O)O)cc1)NC[C@H](O)c1cccc(Cl)c1`, which ACBP immunofluorescence intensity is on record?
A: 0.827

Q: With `COc1ccc(C(=O)N2CCCC2=O)cc1` as the compound, how does the ACBP immunofluorescence intensity read?
A: 0.794

Q: `Oc1ccc2c3c1O[C@H]1c4oc5ccccc5c4C[C@@]4(O)[C@@H](C2)N(CC2CC2)CC[C@]314` was tested. Which ACBP immunofluorescence intensity did it give?
A: 0.732

Q: How did the ACBP immunofluorescence intensity turn out when `CO[C@]12C[C@@H](COC(=O)c3cncc(Br)c3)CN(C)[C@@H]1Cc1cn(C)c3cccc2c13` was run?
A: 0.776

Q: `CC(N)Cc1cnc[nH]1` (stereo not given) was tested. Which ACBP immunofluorescence intensity did it give?
A: 0.959 and 0.958

Q: How did the ACBP immunofluorescence intensity turn out when `NC1CCc2cc(O)c(O)cc2C1` (stereo not given) was run?
A: 0.902

Q: `C=CCN1CC[C@@]2(C)c3cc(O)ccc3C[C@@H]1C2C` (single isomer, unassigned; (+)) was tested. Which ACBP immunofluorescence intensity did it give?
A: 0.718

Q: With `C[C@@H]1O[C@H](C[N+](C)(C)C)C[C@H]1O` as the compound, how does the ACBP immunofluorescence intensity read?
A: 0.869

Q: For `O=C1CC[C@@]2(O)[C@H]3Cc4ccc(O)c5c4[C@@]2(CCN3CC2CC2)[C@H]1O5`, which ACBP immunofluorescence intensity is on record?
A: 0.886

Q: With `c1ccc2c(N3CCNCC3)cccc2c1` as the compound, how does the ACBP immunofluorescence intensity read?
A: 0.842

Q: For `c1ccc(C2CNCc3ccccc32)cc1` (stereo not given), which ACBP immunofluorescence intensity is on record?
A: 0.938

Q: For `CN1CCN(c2ccc3ccccc3n2)CC1`, which ACBP immunofluorescence intensity is on record?
A: 0.986

Q: For `CC(C)NCC(O)c1ccc(N)c(C#N)c1` (stereo not given), which ACBP immunofluorescence intensity is on record?
A: 0.829

Q: For `CC[C@@H](CO)NC(=O)[C@@H]1C=C2c3cccc4[nH]cc(c34)C[C@H]2N(C)C1`, which ACBP immunofluorescence intensity is on record?
A: 1

Q: Which ACBP immunofluorescence intensity does the source give for `CC(C)[C@@]1(NC(=O)[C@@H]2C[C@@H]3c4cccc5[nH]cc(c45)C[C@H]3N(C)C2)O[C@@]2(O)[C@@H]3CCCN3C(=O)[C@H](Cc3ccccc3)N2C1=O` here?
A: 0.906

Q: How did the ACBP immunofluorescence intensity turn out when `CCCN1C[C@H](C)N([C@H](c2ccc(C(=O)N(CC)CC)cc2)c2cccc(OC)c2)C[C@H]1C` was run?
A: 0.754

Q: How did the ACBP immunofluorescence intensity turn out when `CC(N)Cc1c[nH]c2ccc(OCc3cccs3)cc12` (stereo not given) was run?
A: 0.925

Q: With `N=C(N)NCCCCCCCCCCNC(=N)N` as the compound, how does the ACBP immunofluorescence intensity read?
A: 0.859

Q: How did the ACBP immunofluorescence intensity turn out when `CO[C@H]1CC=C2CCN3CCC4=C(CC(=O)OC4)[C@]23C1` was run?
A: 0.973
